Laboratory results: patent publication US20210070872A1 (AGENUS, published 2021)
These are yes or no findings as the source states them, for the method shown. Some binding calls cover weakened binding; strength is not graded here.

T1: purified recombinant human GITR protein (Example 1) (human) (UniProt Q9Y5U5)
T1 sequence: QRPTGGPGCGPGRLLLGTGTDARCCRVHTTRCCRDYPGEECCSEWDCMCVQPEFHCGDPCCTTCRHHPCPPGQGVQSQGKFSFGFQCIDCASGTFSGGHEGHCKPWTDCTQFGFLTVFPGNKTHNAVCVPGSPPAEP

T2: biotinylated GITR (human, UniProt Q9Y5U5 26-161, limits assumed, biotinylated (sites not given))
T2 construct: also called GITR-bio; Biotin-GITR
T2 sequence: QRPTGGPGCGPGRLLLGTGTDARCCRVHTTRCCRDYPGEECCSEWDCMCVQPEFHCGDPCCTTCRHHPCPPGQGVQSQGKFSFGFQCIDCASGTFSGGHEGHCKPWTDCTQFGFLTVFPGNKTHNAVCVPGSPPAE


Assays:
[1] = target: T1, purified recombinant human GITR protein (Example 1) (human); test: Western blot, non-reducing
[2] = target: T1, purified recombinant human GITR protein (Example 1) (human); test: Western blot, non-reducing (FIG. 1)
biotinylated GITR = target: T2, biotinylated GITR; test: FACS competition; GITR-bio pre-incubated with soluble antibody

Row | binding [1] | binding [2] | binding (biotinylated GITR) | Binder
1 | binds | – | – | mAb 231-1039-45 (murine) (antibody, mouse IgG1, V domains shown, Mouse IgG1 from hybridoma) VH: QVQLLQSGTELVRPGVSVKISCKGSGYTFTDYAMYWVKQSHAKSLEWIGVIRTYSGDVTYNQKFKDKATMTVDKSSSIAYMELARLSSEDSAIYYCAKSGTVRGFAYWGQGTLVTVSS VL: DIVMTQSPSSLTVTAGEKVIMSCKSSQSLLNSGNQKNYLTWYQQKPGQPPKLLIYWASTRESGVPDRFTGSGSGTDFTLTISSVQAEDLAVYHCQNDYSYPYTFGGGTKLEIK
2 | binds | – | – | mAb 231-1042-7 (murine) (antibody, mouse IgG1, V domains shown, Mouse IgG1 from hybridoma) VH: QVQLLQSGTELVRPGVSVKISCKGSGYTFTDYAMYWVKQSHAKSLEWIGVIRTYSGDVTYNQKFKDKATMTVDKSSSIAYMELARLSSEDSAIYYCAKSGTVRGFAYWGQGTLVTVSS VL: DIVMTQSPSSLTVTAGEKVIMSCKSSQSLLNSGNQKNYLTWYQQKPGQPPKLLIYWASTRESGVPDRFTGSGSGTDFTLTISSVQAEDLAVYHCQNDYSYPYTFGGGTKLEIK
3 | binds | binds | – | mAb 231-32-15 (murine) (antibody, mouse IgG1, V domains shown, Mouse IgG1 from hybridoma; also called antibody 32-15) VH: QVQLLQSGTELVRPGVSVKISCKGSGYTFTDYAMYWVKQSHAKSLEWIGVIRTYSGDVTYNQKFKDKATMTVDKSSSIAYMELARLSSEDSAIYYCAKSGTVRGFAYWGQGTLVTVSS VL: DIVMTQSPSSLTVTAGEKVIMSCKSSQSLLNSGNQKNYLTWYQQKPGQPPKLLIYWASTRESGVPDRFTGSGSGTDFTLTISSVQAEDLAVYHCQNDYSYPYTFGGGTKLEIK
4 | binds | – | – | mAb 231-1333-21 (murine) (antibody, mouse IgG1, V domains shown, Mouse IgG1 from hybridoma) VH: QVQLLQSGTELVRPGVSVKISCKGSGYTFTDYAMYWVKQSHAKSLEWIGVIRTYSGDVTYNQKFKDKATMTVDKSSSIAYMELARLSSEDSAIYYCAKSGTVRGFAYWGQGTLVTVSS VL: DIVMTQSPSSLTVTAGEKVIMSCKSSQSLLNSGNQKNYLTWYQQKPGQPPKLLIYWASTRESGVPDRFTGSGSGTDFTLTISSVQAEDLAVYHCQNDYSYPYTFGGGTKLEIK
5 | – | – | binds | Hum231#1 (antibody, V domains shown, Variable regions cloned with IGHG1 (also IGHG4 and Fab vectors exist) and IGKC constant regions; format in each assay not always stated; also called humanized variant Hum231#1 (IGHV1-2*02 and IGK3-7*02)) VH: QVQLVQSGAEVKKPGASVKVSCKGSGYTFTDYAMYWVRQAPGQGLEWIGVIRTYSGDVTYNQKFKDRATMTVDKSISTAYMELSRLRSDDTAVYYCAKSGTVRGFAYWGQGTLVTVSS VL: DIVMTQSPPTLSLSPGERVTLSCKSSQSLLNSGNQKNYLTWYQQKPGQAPRLLIYWASTRESGIPARFSGSGSGTDFTLTISSLQPEDFAVYHCQNDYSYPYTFGQGTKLEIK
6 | – | – | binds | Hum231#2 (antibody, human IgG1, V domains shown, Human IgG1 with T109S (Kabat) in the light chain constant domain; also called humanized variant Hum231#2 (IGHV1-2*02 and IGK4-1*01)) VH: QVQLVQSGAEVKKPGASVKVSCKGSGYTFTDYAMYWVRQAPGQGLEWIGVIRTYSGDVTYNQKFKDRATMTVDKSISTAYMELSRLRSDDTAVYYCAKSGTVRGFAYWGQGTLVTVSS VL: DIVMTQSPDSLAVSLGERATINCKSSQSLLNSGNQKNYLTWYQQKPGQPPKLLIYWASTRESGVPDRFSGSGSGTDFTLTISSLQAEDVAVYHCQNDYSYPYTFGQGTKLEIKR
